The record followed here is patent US20250353920A1 (SUBDOMAIN, published 2025).

The chains behind the UniProt entries cited, without tags or fusion partners. Where a name states a change or a piece, a line headed by the entry shows the natural chain unless it says otherwise. A line that says so, or that is headed by a name, gives the form on record, which may keep a tag or linker.
cynomolgus PD-L1 (cynomolgus (Macaca fascicularis)) (G7PSE7, form named): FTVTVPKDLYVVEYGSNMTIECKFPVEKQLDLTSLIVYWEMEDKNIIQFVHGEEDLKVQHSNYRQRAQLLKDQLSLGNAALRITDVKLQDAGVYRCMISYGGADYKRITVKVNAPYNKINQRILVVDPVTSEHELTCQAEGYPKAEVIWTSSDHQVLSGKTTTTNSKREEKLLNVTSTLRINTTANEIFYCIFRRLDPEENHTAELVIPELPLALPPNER

In the test the target is cynomolgus PD-L1 (cynomolgus (Macaca fascicularis)) (UniProt G7PSE7). Put plainly: flow cytometry. A general note: Flow cytometry measures light scatter and fluorescence of single cells or particles in a stream.

These are yes or no findings as the source states them, for the method shown. Some entries that bind do so weakly or less than the wild type.

B1: CAR comprising a DBDpp (pb04) (protein, not shown: small tags and cut ends)
chain: MGSWYEFTVRLEAIHERLKALGGSEAELAAFEKEIAAFESELQAYKGKGNPEVEILRDDAAFIRRFLQAYRHN
On to B1, for which the binding entry is given as “binds”.
